PubChem BioAssay AID1508588, Peter MacCallum Cancer Centre – 2020
Purpose: 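Knock-downs boosting vemurafenib effects on melanoma cell growth or lactate release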 (primary screen). Cell system: human WM266.4 melanoma cells (BRAF V600 mutant). Knock-down reagent: siRNA pool against human genes, 40 nM. Duration: 96 h from transfection to read-out. Challenge: vemurafenib 300 nM (about IC25), added 48 h after transfection, for 48 h; comparison arm got DMSO vehicle only. Measurement: 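Cell gain (DAPI nuclei at end minus before drug, mean of two replicates) and medium lactate by absorbance per cell, both as ratio to non-targeting siRNA, also grouped into fold-change classes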. Reading the numbers: cell gain with vemurafenib: higher = more cell gain than with non-targeting siRNA; lactate per cell with vemurafenib: higher = more lactate made per cell. Active means: 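a knock-down counts as enhancing when its fold-change classes with vehicle and with vemurafenib, taken together, show a stronger drug effect on cell gain or lactate per cell; exact class pairs not stated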. Meaning of the calls: active = enhances vemurafenib effect; inactive = no enhancement seen.
Here is one part, drawn at random, of about 18,000 deposited reagents. In the full data, 790 (4.4%) are marked active. 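Calls rest on a combination of fold-change classes in drug and vehicle arms, not all shown here.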 A number with no mark means an inactive call.

Gene	cell gain with vemurafenib	lactate per cell with vemurafenib
CALCOCO2 (calcium binding and coiled-coil domain 2)	0.97	0.85
IFT57 (intraflagellar transport 57)	0.48	1.25
UBE2O (ubiquitin conjugating enzyme E2 O)	0.75	0.77
CCDC50 (coiled-coil domain containing 50)	0.6	0.29
SOX21 (SRY-box transcription factor 21)	0.89	0.68
SLC8A2	0.47	1.34
TSPYL2 (TSPY like 2)	0.92	0.58
TM7SF3 (transmembrane 7 superfamily member 3)	0.54	1.23
APOBEC3H (apolipoprotein B mRNA editing enzyme catalytic subunit 3H)	0.61	1.53
AHR (aryl hydrocarbon receptor)	0.43	0.97
GPAM (glycerol-3-phosphate acyltransferase, mitochondrial)	0.81	0.78
ZNF337 (zinc finger protein 337)	0.68	1.36
NME8 (NME/NM23 family member 8)	0.86	0.99
KIF12 (kinesin family member 12)	0.23	0.33
IDH3B	0.32	0.38
CD28 (CD28 molecule)	0.75	1.19
ZNF622 (zinc finger protein 622)	0.63	0.54
SLC6A4	0.53	1.27
OR5H1 (olfactory receptor family 5 subfamily H member 1)	0.51	0.59
UMODL1 (uromodulin like 1)	1.1	1.36
CAPN6 (calpain 6)	0.77	0.78
WNT16 (Wnt family member 16)	1.17	1.18
ST6GALNAC4 (ST6 N-acetylgalactosaminide alpha-2,6-sialyltransferase 4)	0.76	0.16
CCDC78 (coiled-coil domain containing 78)	0.8	1.31
PTPRZ1 (protein tyrosine phosphatase receptor type Z1)	1.06	1
BARHL1 (BarH like homeobox 1)	0.97	1.03
ST3GAL2 (ST3 beta-galactoside alpha-2,3-sialyltransferase 2)	0.67	1.04
DAG1 (dystroglycan 1)	0.83	0.54
KIF24 (kinesin family member 24)	0.35	0.92
CDH23 (cadherin related 23)	0.34	1.29
NFATC1 (nuclear factor of activated T cells 1)	0.8	0.84
TRIM64B (tripartite motif containing 64B)	0.7	0.91
OR1M1 (olfactory receptor family 1 subfamily M member 1)	0.72	0.66
PPP2R1A (protein phosphatase 2 scaffold subunit Aalpha)	1	1.15
RHNO1 (RAD9-HUS1-RAD1 interacting nuclear orphan 1)	0.12 (active)	0.14
CRKL (CRK like proto-oncogene, adaptor protein)	0.89	0.63
REN (renin)	0.92	0.99
TRA2B (transformer 2 beta homolog)	-0.01	0.77
GDF6 (growth differentiation factor 6)	0.68	0.74
TBX10 (T-box transcription factor 10)	0.78	0.91
C11orf24 (chromosome 11 open reading frame 24)	0.68 (active)	0.48
MRAS (muscle RAS oncogene homolog)	0.73	0.44
SOWAHA (sosondowah ankyrin repeat domain family member A)	0.79	0.83
STK36 (serine/threonine kinase 36)	0.47	1.02
OR52L1 (olfactory receptor family 52 subfamily L member 1)	0.28	2.42
GAP43 (growth associated protein 43)	0.71	0.25
TOX (thymocyte selection associated high mobility group box)	0.22	2.12
GLRX (glutaredoxin)	0.33	0.24
CCNA2 (cyclin A2)	0.04	1.15
ASH1L (ASH1 like histone lysine methyltransferase)	0.4	0.74
RBL1 (RB transcriptional corepressor like 1)	0.72	1.15
MYRIP (myosin VIIA and Rab interacting protein)	0.76	1.06
TRIM49 (tripartite motif containing 49)	1.06	0.89
SOX3 (SRY-box transcription factor 3)	0.07	0.82
SLC22A23	1.14	0.65
SVOPL (SVOP like)	0.32	0.79
CYYR1 (cysteine and tyrosine rich 1)	0.65	0.34
CRAMP1 (cramped chromatin regulator 1)	1.19	0.75
OFCC1 (orofacial cleft 1 candidate 1 (pseudogene))	0.66	0.57
NDUFB10 (NADH:ubiquinone oxidoreductase subunit B10)	0.83	1.04
PREB (prolactin regulatory element binding)	0.69	1.24
PELI3 (pellino E3 ubiquitin protein ligase family member 3)	0.89	0.54
SFXN4 (sideroflexin 4)	0.67	0.66
RAPGEF5 (Rap guanine nucleotide exchange factor 5)	0.59	0.85
LY86 (lymphocyte antigen 86)	0.55	0.5
PRRT1 (proline rich transmembrane protein 1)	0.33	1.23
RHBDF2 (rhomboid 5 homolog 2)	0.81	0.68
TNNC2 (troponin C2, fast skeletal type)	1.18	0.99
LIM2 (lens intrinsic membrane protein 2)	0.43	1.6
UPF1 (UPF1 RNA helicase and ATPase)	0.27	1.33
NSMCE1 (NSE1 component of SMC5/6 complex)	1.26	1
TMEM150C (transmembrane protein 150C)	0.96	0.56
UXS1 (UDP-glucuronate decarboxylase 1)	0.83	0.84
PHF21B (PHD finger protein 21B)	1.01	0.73
SELENON (selenoprotein N)	0.36	0.98
ANKRD44 (ankyrin repeat domain 44)	0.58	2.13
GABARAP (GABA type A receptor-associated protein)	0.75	0.64
OR13C8 (olfactory receptor family 13 subfamily C member 8)	0.06	1.49
SLC25A42	0.61	1.27
CALR (calreticulin)	0.27	0.83
LPIN1 (lipin 1)	0.58	1.4
OR52E6 (olfactory receptor family 52 subfamily E member 6)	0.55	0.29
LCA5 (lebercilin LCA5)	0.57	0.66
ZNF765 (zinc finger protein 765)	1.37	0.74
